These are yes or no findings as the source states them, for the method shown. In cells and extracts the contact can be indirect. Some results given as binding are weak or reduced against the parent protein; the word gives no strength. Where a sequence is shown, tags or fusion partners need not be part of it.
Molecular target: ABCB6/HMT-1 of C. elegans, full length, expressed in worms as ABCB6/HMT-1::GFP and ABCB6/HMT-1::RFP (C. elegans) (UniProt G5EFD4)
Assay: co-IP; membrane proteins of worms co-expressing ABCB6/HMT-1::GFP and ABCB6/HMT-1::RFP in IP buffer (1% PFO, 50 mM Tris-Cl, 150 mM NaCl, pH 7.4), pre-cleared with Protein G beads, anti-GFP conjugated beads 4 h at 4°C, immunoblot

B1: ABCB6/HMT-1 of C. elegans, full length, expressed in worms as ABCB6/HMT-1::GFP and ABCB6/HMT-1::RFP (protein, UniProt G5EFD4 1-801)
chain: MGFSPFLDECRAEGLWPIGPSCNKIISFGVYTFFIVVNFIVLCIPNSNSANNNYRRMTDDDASSTSKLTISKILSICTIFAVICQSIFYFCFTFYFHPYTHLLLAFCVSKLFFWILSLCSFSKWRNQPSTPISLAFAFSAALLIHCIPLTDWKKYFEPTSKNRGDLTFYIIELALVTVVFFFTIVTGLFNFSGCSSRESAWNNLSKKVVTVAPYIWPTKSISLQLRVVFCLFLLIIGRLINVSLPILSKWIVDELATPDTFQYSLLFLATFLKFLQGNGAMGGFLNTVRTYLWIPIQQYTTRELEVELFKHLHSLSLRWHLSRKTGQVLRVMDRGTSSVNNILNYILFNVVPTIADIVIAVIFFFSAFNAYFGLIVFGTMALYLTVTISITEWRTQYIREANEKDNATSAIATDSLINYETVKYYGNEEFEVNRFKNAIESYQVTEWKTQASLAFLNCLQNAIIGIGMIGGSVFVVYMIVHEKTLTVGDYVLFTTYLLQLYTPLNFFGTIYRVIQKAFVDMENMFDLMNDEVEVKDLPHALPYTDPRGTISVKNLTFEYNTGLPVIKNISFEIGNGQTVALVGSSGSGKSTLIRLLFRLFESTEGSIEFDGIDVRNYTMHSLRQQIGIVPQDTVLFNDTIMYNIRFGRPDASDEEVIEAAKAAMIHEKITSLPEGYATMVGERGLKLSGGEKQRVAIARTILKKPQFIFLDEATSALDTPTERAIQKCLEKLCKSRTGVVVAHRLSTVVNADLILVLDKGIILERGNHKELLAQQGTYASMWEAQIAEQRAKSIELGEELP
  binding: binds

Reference: publication PMC6077975
